Reference: article PMC11701132, “Tau is a receptor with low affinity for glucocorticoids and is required for glucocorticoid-induced bone loss” (Cell Research, 2025)
Results are given in words; binding and its absence hold for the method and conditions named. In cells and extracts the contact can be indirect. These calls come from enrichment with a bait or labelling near it, and not all partners need be listed.

By UniProt entry, the sequences of proteins in these tests, tags left out. Where a name states a change or a piece, a line headed by the entry shows the natural chain unless it says otherwise.
UniProt P10637: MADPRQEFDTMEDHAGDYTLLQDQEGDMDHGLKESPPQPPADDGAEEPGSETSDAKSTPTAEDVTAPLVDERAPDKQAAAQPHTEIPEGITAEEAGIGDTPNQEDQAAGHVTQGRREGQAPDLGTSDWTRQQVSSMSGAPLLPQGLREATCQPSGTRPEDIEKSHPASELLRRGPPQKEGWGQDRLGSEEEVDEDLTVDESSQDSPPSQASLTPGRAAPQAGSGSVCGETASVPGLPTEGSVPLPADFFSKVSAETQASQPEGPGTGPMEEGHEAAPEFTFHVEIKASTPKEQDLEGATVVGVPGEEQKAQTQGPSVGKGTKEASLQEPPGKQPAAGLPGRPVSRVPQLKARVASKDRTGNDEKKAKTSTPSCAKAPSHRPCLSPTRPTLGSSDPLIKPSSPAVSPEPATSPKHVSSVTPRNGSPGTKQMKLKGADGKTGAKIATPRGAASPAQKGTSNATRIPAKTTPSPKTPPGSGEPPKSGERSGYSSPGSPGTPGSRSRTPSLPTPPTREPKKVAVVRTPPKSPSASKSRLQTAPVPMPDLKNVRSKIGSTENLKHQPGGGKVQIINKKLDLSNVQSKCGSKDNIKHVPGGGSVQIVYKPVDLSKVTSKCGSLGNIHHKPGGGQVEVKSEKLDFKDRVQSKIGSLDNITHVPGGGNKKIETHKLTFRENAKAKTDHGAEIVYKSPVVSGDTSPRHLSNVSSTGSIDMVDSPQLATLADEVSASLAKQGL
UniProt Q6PCN3: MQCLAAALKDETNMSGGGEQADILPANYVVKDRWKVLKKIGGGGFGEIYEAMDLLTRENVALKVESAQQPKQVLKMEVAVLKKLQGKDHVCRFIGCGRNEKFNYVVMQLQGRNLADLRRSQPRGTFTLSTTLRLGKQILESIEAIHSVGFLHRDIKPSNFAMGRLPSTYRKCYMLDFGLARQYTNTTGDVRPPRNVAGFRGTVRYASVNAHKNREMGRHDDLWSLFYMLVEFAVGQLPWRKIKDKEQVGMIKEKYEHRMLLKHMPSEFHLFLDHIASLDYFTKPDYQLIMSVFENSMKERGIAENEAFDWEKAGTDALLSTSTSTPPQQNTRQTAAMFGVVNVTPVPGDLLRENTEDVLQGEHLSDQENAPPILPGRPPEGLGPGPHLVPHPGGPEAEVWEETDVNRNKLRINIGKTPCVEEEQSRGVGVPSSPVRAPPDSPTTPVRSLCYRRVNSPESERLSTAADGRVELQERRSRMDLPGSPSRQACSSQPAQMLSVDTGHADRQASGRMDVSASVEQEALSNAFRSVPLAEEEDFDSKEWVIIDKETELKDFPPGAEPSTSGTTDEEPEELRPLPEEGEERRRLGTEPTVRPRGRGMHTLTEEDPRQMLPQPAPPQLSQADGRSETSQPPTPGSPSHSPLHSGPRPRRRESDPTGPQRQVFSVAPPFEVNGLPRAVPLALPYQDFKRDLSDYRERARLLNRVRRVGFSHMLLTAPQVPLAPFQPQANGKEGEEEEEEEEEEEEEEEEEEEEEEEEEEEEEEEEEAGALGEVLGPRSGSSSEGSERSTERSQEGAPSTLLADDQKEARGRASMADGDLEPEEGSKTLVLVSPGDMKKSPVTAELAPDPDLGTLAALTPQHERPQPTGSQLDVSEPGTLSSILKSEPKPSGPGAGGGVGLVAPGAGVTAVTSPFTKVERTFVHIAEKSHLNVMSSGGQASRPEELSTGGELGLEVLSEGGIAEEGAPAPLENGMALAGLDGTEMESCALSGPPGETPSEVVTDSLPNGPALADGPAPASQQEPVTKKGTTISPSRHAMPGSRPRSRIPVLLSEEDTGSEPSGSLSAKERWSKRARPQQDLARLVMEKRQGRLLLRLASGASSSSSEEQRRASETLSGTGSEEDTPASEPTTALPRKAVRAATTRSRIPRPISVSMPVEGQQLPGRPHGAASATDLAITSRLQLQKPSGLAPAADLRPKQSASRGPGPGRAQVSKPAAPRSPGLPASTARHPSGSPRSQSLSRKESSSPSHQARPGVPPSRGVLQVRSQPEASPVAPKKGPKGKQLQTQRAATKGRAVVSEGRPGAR

B1: serine/threonine protein kinase TAO1 (enzyme, UniProt Q5F2E8 1-1001)
chain: MPSTNRAGSLKDPEIAELFFKEDPEKLFTDLREIGHGSFGAVYFARDVRTNEVVAIKKMSYSGKQSTEKWQDIIKEVKFLQRIKHPNSIEYKGCYLREHTAWLVMEYCLGSASDLLEVHKKPLQEVEIAAITHGALQGLAYLHSHTMIHRDIKAGNILLTEPGQVKLADFGSASMASPANSFVGTPYWMAPEVILAMDEGQYDGKVDVWSLGITCIELAERKPPLFNMNAMSALYHIAQNESPTLQSNEWSDYFRNFVDSCLQKIPQDRPTSEELLKHMFVLRERPETVLIDLIQRTKDAVRELDNLQYRKMKKLLFQEAHNGPAVEAQEEEEEQDHGVGRTGTVNSVGSNQSIPSMSISASSQSSSVNSLPDASDDKSELDMMEGDHTVMSNSSVIHLKPEEENYQEEGDPRTRASDPQSPPQVSRHKSHYRNREHFATIRTASLVTRQMQEHEQDSELREQMSGYKRMRRQHQKQLMTLENKLKAEMDEHRLRLDKDLETQRNNFAAEMEKLIKKHQAAMEKEAKVMANEEKKFQQHIQAQQKKELNSFLESQKREYKLRKEQLKEELNENQSTPKKEKQEWLSKQKENIQHFQAEEEANLLRRQRQYLELECRRFKRRMLLGRHNLEQDLVREELNKRQTQKDLEHAMLLRQHESMQELEFRHLNTIQKMRCELIRLQHQTELTNQLEYNKRRERELRRKHVMEVRQQPKSLKSKELQIKKQFQDTCKIQTRQYKALRNHLLETTPKSEHKAVLKRLKEEQTRKLAILAEQYDHSINEMLSTQALRLDEAQEAECQVLKMQLQQELELLNAYQSKIKMQAEAQHDRELRELEQRVSLRRALLEQKIEEEMLALQNERTERIRSLLERQAREIEAFDSESMRLGFSNMVLSNLSPEAFSHSYPGASSWSHNPTGGPGPHWGHPMGGTPQAWGHPMQGGPQPWGHPSGPMQGVPRGSSMGVRNSPQALRRTASGGRTEQGMSRSTSVTSQISNGSHMSYT
B2: serine/threonine protein kinase Nek9 (enzyme, UniProt Q8K1R7 1-984)
chain: MSVLGEYERHCDSINSDFGSESGGGGDSGPGPSAVPGPRAGGGAAEQEELHYIPIRVLGRGAFGEATLYRRTEDDSLVVWKEVDLTRLSEKERRDALNEIVILALLQHDNIIAYYNHFMDNTTLLIELEYCNGGNLYDKILRQKDKLFEEEMVVWYLFQIVSAVSCIHKAGILHRDIKTLNIFLTKANLIKLGDYGLAKKLNSEYSMAETLVGTPYYMSPELCQGVKYNFKSDIWAVGCVIFELLTLKRTFDATNPLNLCVKIVQGIRAMEVDSSQYSLELIQLVHACLDQDPEQRPAADALLDLPLLRTRRREMEEKVTLLNAPTKRPRSSTVTEAPIAVVTSRTSEVYVWGGGKSTPQKLDVIKSGCSARQVCAGNTHFAVVTVEKELYTWVNMQGGTKLHGQLGHGDKASYRQPKHVEKLQGKAIHQVSCGDDFTVCVTDEGQLYAFGSDYYGCMGVDKVSGPEVLEPMQLNFFLSNPVEQVSCGDNHVVVLTRNKEVYSWGCGEYGRLGLDSEEDYYTPQRVDVPKALIIVAVQCGCDGTFLLTQSGKVLACGLNEFNKLGLNQCMSGIINHEAYHEVPYTTSFTLAKQLSFYKIRTIAPGKTHTAAIDERGRLLTFGCNKCGQLGVGNYKKRLGINLLGGPLGGKQVIRVSCGDEFTIAATDDNHIFAWGNGGNGRLAMTPTERPHGSDICTSWPRPIFGSLHHVPDLSCRGWHTILIVEKVLNSKTIRSNSSGLSIGTVVQSSSPGGGIGGGGGGGGGGGGEEEDSQQESETPDPSGGFRGTMEADRGMEGLISPTEAVGNSCGASSSCPGWLRKELENAEFIPMPDSPAPLSAAFSQSEKDTLPYEELQGLKVASEVPPEPQRAAGAWPPRLDPAVPCVGKALTSAACACSALQVEVDRLQALVLKCLEEQQKLQQENLQMFTQLQKLNKKLEGGQQVGMHSRGTQTAKEEMEMDPKPDLDSESWCLLGTDSCRPSL

Target: Tau (mouse (endogenous in Raw264.7)) (UniProt P10637)
Test: affinity purification with mass spectrometry; control and Tau knockout Raw264.7 cells treated with or without 10 µM biotin-labelled dexamethasone for 30 min; lysate on streptavidin magnetic particles 2 h at 4 °C; eluted with 0.1 M glycine-HCl pH 2.5; mass spectrometry

binding | Molecule
binds | TTBK1 kinase (from UniProt Q6PCN3 1-1308) (enzyme)
binds | B1
binds | B2
